Results reported in article PMC8732813.
Results are given in words; binding and its absence hold for the method and conditions named. In cells and extracts the contact can be indirect. Some binding calls cover weakened binding; strength is not graded here.

Chains of the proteins cited; added tags and fusions are not shown. Lines headed by an entry give the natural chain unless they say otherwise; changes in a name come on top.
UniProt Q96D31: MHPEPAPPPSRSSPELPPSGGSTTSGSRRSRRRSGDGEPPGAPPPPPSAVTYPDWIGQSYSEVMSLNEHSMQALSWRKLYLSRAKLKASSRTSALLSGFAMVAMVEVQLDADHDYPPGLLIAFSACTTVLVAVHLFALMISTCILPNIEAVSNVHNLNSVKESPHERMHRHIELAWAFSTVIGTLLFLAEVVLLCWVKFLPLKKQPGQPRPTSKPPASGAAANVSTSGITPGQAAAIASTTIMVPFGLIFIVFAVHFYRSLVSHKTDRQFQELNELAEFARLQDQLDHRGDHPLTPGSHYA
UniProt P48995: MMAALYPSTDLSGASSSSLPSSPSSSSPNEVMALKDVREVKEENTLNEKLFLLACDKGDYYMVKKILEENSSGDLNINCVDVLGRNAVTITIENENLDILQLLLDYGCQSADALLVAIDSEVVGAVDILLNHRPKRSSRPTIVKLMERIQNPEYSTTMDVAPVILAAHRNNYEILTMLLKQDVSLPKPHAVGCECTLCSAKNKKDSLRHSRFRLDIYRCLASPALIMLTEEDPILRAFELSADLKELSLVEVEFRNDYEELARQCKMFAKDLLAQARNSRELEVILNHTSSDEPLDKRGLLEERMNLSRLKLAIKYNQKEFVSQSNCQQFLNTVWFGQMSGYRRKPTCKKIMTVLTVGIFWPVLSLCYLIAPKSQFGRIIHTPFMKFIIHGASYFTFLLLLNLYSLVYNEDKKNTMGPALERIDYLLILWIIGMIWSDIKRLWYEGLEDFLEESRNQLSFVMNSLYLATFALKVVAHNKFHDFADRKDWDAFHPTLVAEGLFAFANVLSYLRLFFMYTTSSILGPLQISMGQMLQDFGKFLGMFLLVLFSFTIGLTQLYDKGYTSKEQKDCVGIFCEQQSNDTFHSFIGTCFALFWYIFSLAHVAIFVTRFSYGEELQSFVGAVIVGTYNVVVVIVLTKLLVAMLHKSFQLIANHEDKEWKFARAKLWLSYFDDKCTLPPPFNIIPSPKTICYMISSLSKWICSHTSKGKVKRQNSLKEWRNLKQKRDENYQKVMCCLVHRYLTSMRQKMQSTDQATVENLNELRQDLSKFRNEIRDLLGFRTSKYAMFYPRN

Legend:
[1] = biological target: Orai1α (long variant of Orai1), endogenous in HeLa cells (human (endogenous in HeLa)) (UniProt Q96D31); experiment: co-IP; native HeLa cells in Ca2+-free medium (300 µM EGTA) or 1 mM CaCl2, with or without thapsigargin; Orai1α immunoprecipitated with anti-Orai1 N-terminal antibody (amino acids 2-61), then Orai1β from the supernatant with anti-Orai1 C-terminal antibody (amino acids 288-301); Western blot with anti-TRPC1 antibody (Fig. S5)
[2] = biological target: TRPC1, endogenous in HeLa cells (human (endogenous in HeLa)) (UniProt P48995); experiment: co-IP; native HeLa cells, resting or 2 µM thapsigargin for 1 min, 1 mM extracellular Ca2+; NP-40 lysates immunoprecipitated with anti-TRPC1 or anti-STIM1 antibody and protein A-agarose overnight at 4 °C; immunoprecipitates de-glycosylated with PNGase F; Western blot with anti-Orai1 antibody

binding [1]	binding [2]	Substance
binds		TRPC1, endogenous in HeLa cells (from UniProt P48995 1-793)
	binds	Orai1α (long variant of Orai1), endogenous in HeLa cells (from UniProt Q96D31 1-301)
